Among the data in paper doi:10.1101/2024.01.09.574788 are binding values, retold here.

Sequences of proteins named here, by UniProt entry; tags and fusion partners are left off.
UniProt F4J8D3: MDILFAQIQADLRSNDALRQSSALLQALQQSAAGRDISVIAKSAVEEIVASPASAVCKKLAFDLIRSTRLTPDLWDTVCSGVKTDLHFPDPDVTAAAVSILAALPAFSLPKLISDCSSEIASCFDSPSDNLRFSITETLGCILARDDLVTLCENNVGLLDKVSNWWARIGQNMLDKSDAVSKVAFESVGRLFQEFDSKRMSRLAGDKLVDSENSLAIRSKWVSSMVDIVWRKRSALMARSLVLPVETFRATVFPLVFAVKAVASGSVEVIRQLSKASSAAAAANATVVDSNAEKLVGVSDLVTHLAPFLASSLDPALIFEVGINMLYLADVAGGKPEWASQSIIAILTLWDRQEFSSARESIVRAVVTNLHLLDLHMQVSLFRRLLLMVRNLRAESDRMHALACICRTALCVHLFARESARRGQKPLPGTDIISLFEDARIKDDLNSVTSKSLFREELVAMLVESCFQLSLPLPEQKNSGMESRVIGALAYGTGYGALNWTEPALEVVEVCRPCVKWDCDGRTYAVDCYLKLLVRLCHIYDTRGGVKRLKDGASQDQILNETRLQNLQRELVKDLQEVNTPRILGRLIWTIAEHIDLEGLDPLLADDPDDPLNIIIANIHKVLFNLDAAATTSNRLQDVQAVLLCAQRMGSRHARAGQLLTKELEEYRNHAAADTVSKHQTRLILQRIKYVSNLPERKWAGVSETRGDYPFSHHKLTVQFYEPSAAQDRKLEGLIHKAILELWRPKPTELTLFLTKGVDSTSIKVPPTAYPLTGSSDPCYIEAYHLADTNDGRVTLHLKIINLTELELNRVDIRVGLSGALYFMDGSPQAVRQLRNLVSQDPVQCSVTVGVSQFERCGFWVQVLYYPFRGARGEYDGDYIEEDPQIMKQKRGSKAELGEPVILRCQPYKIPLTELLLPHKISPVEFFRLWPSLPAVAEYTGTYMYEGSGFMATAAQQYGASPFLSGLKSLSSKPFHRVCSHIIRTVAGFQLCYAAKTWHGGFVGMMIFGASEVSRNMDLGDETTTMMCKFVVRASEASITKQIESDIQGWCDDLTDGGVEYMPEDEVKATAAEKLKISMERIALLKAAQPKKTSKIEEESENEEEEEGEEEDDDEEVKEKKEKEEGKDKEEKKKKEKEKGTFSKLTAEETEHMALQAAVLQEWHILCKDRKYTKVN

These are yes or no findings as the source states them, for the method shown. Binding seen in cells or lysates may run through a third protein. These calls come from enrichment with a bait or labelling near it, and not all partners need be listed.

This test deals with TPLATE-GSL-PafA (Arabidopsis) (UniProt F4J8D3). Kind of test: proximity labelling.

For “AtEH1/Pan1, a subunit of the TPC (from UniProt F4HUN9)”, the binding result was “binds”.
